Data from PubChem BioAssay AID194 (DTP/NCI, 2004).
The list does not hold the whole screen: it is rich in T/C values a quarter to a half above the control, in often repeated tests (any T/C) and in doses without a T/C. Further doses and runs are listed elsewhere. T/C: endpoint of the treated group in % of that of the vehicle group. Some entries give survivors of the animals treated and no T/C: the source files T/C as zero there, which appears to mark a toxic dose or a test without result, not a measured value. Some survivor counts are full or nearly so, which does not show that the dose was tolerated: the source hardly ever lists a survival T/C far under the control, and the zero likely stands for such cases as well. Survivors were counted at the toxicity check, usually on the fifth day, unless a day is given; later deaths do not show. Schedule codes are those of the source, read here as Q, the interval in days (D) or hours (H), X, the number of doses. Where survival is the endpoint, this PubChem deposit counts one and a half times the control or more as active, and values a quarter to a half above the control carry no call in these data; other NCI protocols may use other cut-offs. Some entries hold several experiments; the results are listed from low to high.

Tested on: BDF1 mice, B16 melanoma s.c., survival/tumor T/C
Test: NCI In Vivo Anticancer Drug Screen. Data for tumor model B16 Melanoma (subcutaneous) in B6D2F1 (BDF1) mice
Settings: T/C endpoint: median survival time, higher T/C = longer survival
Protocol: The antitumor activity of compounds was measured in mice bearing transplantable tumors. Survival or tumor size were measured and the results are expressed as the measurement made in the treated group (T) divided by the measurement made in the vehicle treated control group (C). The tumor model used in this assay is B16 Melanoma (subcutaneous) in B6D2F1 (BDF1) mice

[1] = dose: 25.0 mg/kg/injection, schedule: Q02DX009 (ip), vehicle: Klucel (hydroxypropylcellulose) (HPC)

## CN(N=O)C(N)=O
dose: 25.0 mg/kg/injection, schedule: Q01DX009 (ip), vehicle: saline
  survivor count: 10 of 10
dose: 50.0 mg/kg/injection, schedule: Q01DX009 (ip), vehicle: saline
  survivor count: 10 of 10

## CC[C@](O)(C(=O)O)c1cc2n(c(=O)c1CO)Cc1cc3ccccc3nc1-2
dose: 1.0 mg/kg/injection, schedule: Q01DX009 (ip), vehicle: saline
  survivor count: 10 of 10
dose: 4.0 mg/kg/injection, schedule: Q01DX009 (ip), vehicle: Klucel (hydroxypropylcellulose) (HPC)
  survivor count: 10 of 10
dose: 4.0 mg/kg/injection, schedule: Q01DX009 (ip), vehicle: saline
  survivor count: 10 of 10
dose: 8.0 mg/kg/injection, schedule: Q01DX009 (ip), vehicle: Klucel (hydroxypropylcellulose) (HPC)
  survivor count: 10 of 10
dose: 8.0 mg/kg/injection, schedule: Q01DX009 (ip), vehicle: saline
  survivor count: 10 of 10
dose: 16.0 mg/kg/injection, schedule: Q01DX009 (ip), vehicle: saline
  survivor count: 10 of 10
dose: 32.0 mg/kg/injection, schedule: Q01DX009 (ip), vehicle: saline
  survivor count: 8 of 10

## Cc1c(N)nc(C(CC(N)=O)NCC(N)C(N)=O)nc1C(=O)NC(C(=O)NC(C)C(O)C(C)C(=O)NC(C(=O)NCCc1nc(-c2nc(C(=O)NCCCNCCCc3ccccn3)cs2)cs1)C(C)O)C(OC1OC(CO)C(O)C(O)C1OC1OC(CO)C(O)C(OC(N)=O)C1O)c1cnc[nH]1 (stereo not given)
dose: 0.8 mg/kg/injection, schedule: Q01DX010 (ip), vehicle: water
  T/C: 127 and 129 % of control
dose: 1.6 mg/kg/injection, schedule: Q01DX010 (ip), vehicle: water
  T/C: 131 % of control

## Nc1c(Cl)c(Cl)nc(C(=O)O)c1Cl
dose: 12.5 mg/kg/injection, schedule: Q02DX009 (ip), vehicle: Klucel (hydroxypropylcellulose) (HPC)
  survivor count: 10 of 10
[1]
  T/C: 141 % of control
  survivor count: 10 of 10
dose: 400.0 mg/kg/injection, schedule: Q02DX009 (ip), vehicle: Klucel (hydroxypropylcellulose) (HPC)
  survivor count: 3 of 10

## COC1=C2C[C@@H](C)C[C@@H](OC)[C@@H](O)[C@H](C)/C=C(\C)[C@@H](OC(N)=O)[C@H](OC)/C=C\C=C(/C)C(=O)NC(=CC1=O)C2=O
dose: 2.0 mg/kg/injection, schedule: Q01DX005 (ip), vehicle: water
  survivor count: 3 of 6
dose: 4.0 mg/kg/injection, schedule: Q01DX005 (ip), vehicle: water
  survivor count: 0 of 6

## N[C@H](C(=O)O)[C@H]1ON=C(Cl)[C@@H]1O
dose: 64.0 mg/kg/injection, schedule: Q01DX009 (ip), vehicle: saline
  T/C: 131 % of control
dose: 800.0 mg/kg/injection, schedule: Q01DX009 (ip), vehicle: saline with Tween-80
  survivor count: 10 of 10

## O=NN(CCF)C(=O)N[C@H]1CCCC[C@H]1O
dose: 3.11 mg/kg/injection, schedule: Q01DX007 (ip), vehicle: water
  T/C: 126 % of control
dose: 24.0 mg/kg/injection, schedule: Q01DX007 (ip), vehicle: water
  survivor count: 1 of 10 on day 55

## CC1(C)N=C(N)N=C(N)N1c1ccc(CCCCc2ccc(Cl)c(S(=O)(=O)F)c2)c(Cl)c1
dose: 40.0 mg/kg/injection, schedule: Q01DX009 (ip), vehicle: saline
  survivor count: 1 of 6

## Cc1c[n+]2c3ccccc3c3ccccc3c2s1
dose: 5.0 mg/kg/injection, schedule: Q01DX009 (ip), vehicle: Klucel (hydroxypropylcellulose) (HPC)
  T/C: 129 % of control
dose: 10.0 mg/kg/injection, schedule: Q01DX009 (ip), vehicle: Klucel (hydroxypropylcellulose) (HPC)
  survivor count: 10 of 10
dose: 40.0 mg/kg/injection, schedule: Q01DX009 (ip), vehicle: Klucel (hydroxypropylcellulose) (HPC)
  survivor count: 0 of 10

## ClC1=NC(Cl)C(Cl)=N/C1=N\c1ncn[nH]1 (stereo not given)
dose: 8.0 mg/kg/injection, schedule: Q01DX009 (ip), vehicle: water
  T/C: 129 % of control
dose: 32.0 mg/kg/injection, schedule: Q01DX009 (ip), vehicle: Klucel (hydroxypropylcellulose) (HPC)
  survivor count: 10 of 10
dose: 64.0 mg/kg/injection, schedule: Q01DX009 (ip), vehicle: Klucel (hydroxypropylcellulose) (HPC)
  survivor count: 7 of 10
dose: 64.0 mg/kg/injection, schedule: Q01DX009 (ip), vehicle: water
  survivor count: 3 of 8
dose: 128.0 mg/kg/injection, schedule: Q01DX009 (ip), vehicle: water
  survivor count: 0 of 8
